{"sequences": {"note": "Sequences of proteins named here, by UniProt entry; tags and fusion partners are left off. A change or cut given only in a name is not applied to a line headed by its entry.", "UniProt P14416, whole entry, looked up": "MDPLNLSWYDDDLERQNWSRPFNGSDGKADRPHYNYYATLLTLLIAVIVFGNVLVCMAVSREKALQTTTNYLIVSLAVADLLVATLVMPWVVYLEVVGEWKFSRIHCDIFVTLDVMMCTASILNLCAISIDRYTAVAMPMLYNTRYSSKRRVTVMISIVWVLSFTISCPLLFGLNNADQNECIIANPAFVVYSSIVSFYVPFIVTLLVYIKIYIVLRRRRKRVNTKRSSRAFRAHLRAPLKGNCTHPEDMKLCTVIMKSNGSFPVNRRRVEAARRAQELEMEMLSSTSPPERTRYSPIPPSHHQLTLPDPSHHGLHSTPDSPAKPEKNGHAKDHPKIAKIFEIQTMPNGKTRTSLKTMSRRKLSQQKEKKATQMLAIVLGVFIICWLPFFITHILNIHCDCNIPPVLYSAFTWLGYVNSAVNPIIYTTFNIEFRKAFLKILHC", "UniProt P24530": "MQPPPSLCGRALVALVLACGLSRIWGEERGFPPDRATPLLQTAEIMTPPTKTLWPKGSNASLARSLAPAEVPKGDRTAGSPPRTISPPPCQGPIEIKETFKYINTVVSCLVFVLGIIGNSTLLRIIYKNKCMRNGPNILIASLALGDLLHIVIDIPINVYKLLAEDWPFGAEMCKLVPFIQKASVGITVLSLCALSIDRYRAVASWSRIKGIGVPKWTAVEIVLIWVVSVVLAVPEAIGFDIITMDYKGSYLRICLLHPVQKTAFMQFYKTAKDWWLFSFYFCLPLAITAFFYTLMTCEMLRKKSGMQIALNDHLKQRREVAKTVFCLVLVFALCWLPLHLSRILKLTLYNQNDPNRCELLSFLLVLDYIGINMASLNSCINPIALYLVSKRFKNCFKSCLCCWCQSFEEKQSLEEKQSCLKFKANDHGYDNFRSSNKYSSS", "UniProt P21728, whole entry, looked up": "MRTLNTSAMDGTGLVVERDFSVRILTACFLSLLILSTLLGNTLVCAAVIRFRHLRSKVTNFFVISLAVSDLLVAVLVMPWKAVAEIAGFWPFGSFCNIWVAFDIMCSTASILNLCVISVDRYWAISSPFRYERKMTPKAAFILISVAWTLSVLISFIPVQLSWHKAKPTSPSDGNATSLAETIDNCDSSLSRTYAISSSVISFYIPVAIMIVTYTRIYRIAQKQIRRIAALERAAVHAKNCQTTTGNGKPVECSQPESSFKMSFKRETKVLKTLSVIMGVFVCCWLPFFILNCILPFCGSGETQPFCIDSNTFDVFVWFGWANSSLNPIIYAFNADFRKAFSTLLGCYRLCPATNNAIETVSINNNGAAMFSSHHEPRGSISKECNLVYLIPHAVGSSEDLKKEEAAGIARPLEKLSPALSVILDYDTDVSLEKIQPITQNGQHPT", "UniProt P20309, whole entry, looked up": "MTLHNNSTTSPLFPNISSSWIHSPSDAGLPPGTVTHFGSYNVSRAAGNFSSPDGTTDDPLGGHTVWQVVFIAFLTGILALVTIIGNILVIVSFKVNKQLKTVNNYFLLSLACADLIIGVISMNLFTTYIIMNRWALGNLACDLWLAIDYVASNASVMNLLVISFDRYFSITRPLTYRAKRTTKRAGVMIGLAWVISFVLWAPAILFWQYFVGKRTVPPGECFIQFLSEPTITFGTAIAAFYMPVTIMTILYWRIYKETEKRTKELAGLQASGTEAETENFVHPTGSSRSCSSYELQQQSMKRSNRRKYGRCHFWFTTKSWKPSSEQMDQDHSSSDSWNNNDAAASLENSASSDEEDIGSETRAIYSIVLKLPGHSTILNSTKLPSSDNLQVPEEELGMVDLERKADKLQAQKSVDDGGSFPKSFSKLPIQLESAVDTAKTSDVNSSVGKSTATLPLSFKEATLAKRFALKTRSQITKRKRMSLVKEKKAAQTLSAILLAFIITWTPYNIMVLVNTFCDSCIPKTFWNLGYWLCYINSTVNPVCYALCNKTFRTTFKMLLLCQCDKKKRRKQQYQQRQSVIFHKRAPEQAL"}, "source": "PubChem BioAssay (EPA / NIEHS)", "note": "Inconclusive means that the source gave no clear call. Such entries were picked first, then a sample of the others. Potencies of inconclusive entries are doubtful fits and often do not repeat. Activity calls are given as the source filed them. Rule for the calls: active = hit-call score of the fitted dose curve at least 0.9, where 1 is the maximum; inconclusive = response in the unintended direction; inactive = score below 0.9."}
{"molecular_target": "Type-1 angiotensin II receptor (Homo sapiens) (UniProt P30556)", "experiment": "NVS_GPCR_hAT1: NovaScreen (NVS) G Protein-Coupled Receptor Assay for human Angiotensin II receptor type 1 (AT1) (AID 2283263)", "method_in_brief": "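Hits from a 25 uM duplicate screen (threshold e.g. 30% inhibition) were run in concentration-response with 50 uM top concentration. Displacement of specific radioligand from KAN-TS membrane preparations measured after 3 h by filter scintillation, DMSO as baseline.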"}
{"smiles": "CCN(CC)C(=S)SSC(=S)N(CC)CC", "outcome": "inactive"}
{"smiles": "CO[C@H]1/C=C/O[C@@]2(C)Oc3c(C)c(O)c4c(O)c(c(/C=N/N5CCN(C)CC5)c(O)c4c3C2=O)NC(=O)/C(C)=C\\C=C\\[C@H](C)[C@H](O)[C@@H](C)[C@@H](O)[C@@H](C)[C@H](OC(C)=O)[C@@H]1C", "outcome": "inactive"}
{"smiles": "CCn1nc(C)c2c1C(=O)NCC(c1ccc(O)cc1)=N2", "AC50": "inconclusive: 0.314 µM"}
{"smiles": "Cn1cnc2c1c(=O)[nH]c(=O)n2C", "AC50": "inconclusive: 10.5 µM"}
{"smiles": "O=C(Nc1ccc([N+](=O)[O-])cc1Cl)c1cc(Cl)ccc1O", "AC50": "inconclusive: 41.2 µM"}
{"smiles": "CCNc1nc(N)nc(Cl)n1", "AC50": "inconclusive: 25 µM"}
{"smiles": "CCSC(=O)N(CC(C)C)CC(C)C", "AC50": "inconclusive: 46.5 µM"}
{"molecular_target": "human Dopamine Receptor D2 (DRD2), DRD2 (gene 1813) (UniProt P14416)", "experiment": "NVS_GPCR_hDRD2s: NovaScreen (NVS) G Protein-Coupled Receptor Assay for human Dopamine Receptor D2 (DRD2) (AID 2283266)", "method_in_brief": "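Test compound (25 uM, duplicate in the primary screen; concentration series at follow-up) competed with radioligand for human DRD2 in CHO-derived membrane protein. Filter-based scintillation counting was done 1.5 hours after dosing, with loss of signal analysed against DMSO.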"}
{"smiles": "CCn1nc(C)c2c1C(=O)NCC(c1ccc(O)cc1)=N2", "AC50": "inconclusive: 0.189 µM"}
{"smiles": "CCOC(=O)c1ccc(C2CCC(NC[C@H](O)COc3ccc(O)c(NS(C)(=O)=O)c3)CC2)cc1", "note": "(stereo not given in full)", "AC50": "active: 0.0174 µM"}
{"smiles": "CCOc1cccc(-n2cc(C(=O)N3CCN(c4cc(C(=O)O)c5ccccc5c4)CC3)nc2-c2ccc(C)cc2)c1", "AC50": "inconclusive: 6 µM"}
{"smiles": "Nc1nc(N)c2nc(CNc3ccc(C(=O)N[C@@H](CCC(=O)O)C(=O)O)cc3)cnc2n1", "AC50": "active: 18.3 µM"}
{"smiles": "O=S(=O)(O)c1ccc(N=Nc2c(O)ccc3cc(S(=O)(=O)O)ccc23)cc1", "AC50": "active: 8.72 µM"}
{"smiles": "Cc1ccc(C(C)C)c(O)c1", "AC50": "inconclusive: 0.0583 µM"}
{"smiles": "Cc1[nH]cnc1C[C@H]1CCc2c(C)c3ccccc3n2C1=O", "AC50": "active: 0.979 µM"}
{"molecular_target": "human Endothelin Receptor Type B (ETB), EDNRB (gene 1910) (UniProt P24530)", "experiment": "NVS_GPCR_hETB: NovaScreen (NVS) G Protein-Coupled Receptor Assay for human Endothelin Receptor Type B (ETB) (AID 2283267)", "method_in_brief": "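Filter-based scintillation readout of radioligand displacement, 4 h, using membranes from human astrocytoma cells. Actives from a 25 uM duplicate screen were retested in concentration-response (top 50 uM) relative to DMSO baseline.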"}
{"smiles": "O=C(O)c1cccc(N(Cc2cccnc2)c2ccc(OC(F)F)c(OC(F)F)c2)c1", "AC50": "inconclusive: 25 µM"}
{"smiles": "CCc1cc(C2=C(C(=O)O)N(c3ccccc3C(F)(F)F)S(=O)(=O)c3ccccc32)cc2c1OCO2", "AC50": "active: 0.442 µM"}
{"smiles": "NCCOCCOCCN", "outcome": "inactive"}
{"smiles": "CCCC[C@H]1CN(CC2CCOCC2)C(=O)OC12CCN(C1(C)CCN(C(=O)c3c(C)ncnc3C)CC1)CC2", "AC50": "inconclusive: 2.05 µM"}
{"smiles": "COc1cc(-c2nc(NC(=O)c3cc4cc(C)cc(C)c4n3CC(=O)O)sc2CCC2CCCCC2)c(OC)cc1Cl", "AC50": "inconclusive: 21.1 µM"}
{"smiles": "O=C(O)c1cccnc1", "AC50": "inconclusive: 1.84 µM"}
{"smiles": "O=C1c2ccccc2C(=O)N1CCc1noc(-c2ccc(CN3CCCCCC3)s2)n1", "outcome": "inactive"}
{"molecular_target": "D(1A) dopamine receptor (Homo sapiens) (UniProt P21728)", "experiment": "NVS_GPCR_hDRD1: NovaScreen (NVS) G Protein-Coupled Receptor Assay for human Dopamine Receptor D1 (DRD1) (AID 2283269)", "method_in_brief": "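Cell-free competition with radioligand, filter-trapped and scintillation-counted 1 h post-dose, using HEK293-derived human D1 preparation. Duplicate single-point testing at 25 uM first, then concentration series for actives; DMSO served as baseline, loss-of-signal scored.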"}
{"smiles": "COc1cccc(OC)c1O", "AC50": "inconclusive: 25 µM"}
{"smiles": "Cn1cnc2c1c(=O)[nH]c(=O)n2C", "outcome": "inactive"}
{"smiles": "CCOCN(C(=O)CS(=O)(=O)O)c1c(C)cccc1CC", "AC50": "inconclusive: 25 µM"}
{"smiles": "CCOC(=O)CCC(=O)OCC", "AC50": "inconclusive: 1.35 µM"}
{"smiles": "COC(=O)c1ccc([N+](=O)[O-])cc1", "AC50": "inconclusive: 0.521 µM"}
{"smiles": "CCOC(=O)CC(C)O", "note": "(stereo not given)", "AC50": "inconclusive: 6.62 µM"}
{"molecular_target": "Muscarinic acetylcholine receptor M3 (Homo sapiens) (UniProt P20309)", "experiment": "NVS_GPCR_hM3: NovaScreen (NVS) G Protein-Coupled Receptor Assay for human Muscarinic, M3 Receptor (AID 2283272)", "method_in_brief": "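Radioligand displacement binding on human M3 receptor in CHO-derived membranes, 1 h incubation, filter-based scintillation counting. Primary screen in duplicate at 25 uM; actives followed up in concentration series; loss of signal versus DMSO.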"}
{"smiles": "CCn1nc(C)c2c1C(=O)NCC(c1ccc(O)cc1)=N2", "AC50": "inconclusive: 0.22 µM"}
{"smiles": "Cn1cnc2c1c(=O)[nH]c(=O)n2C", "AC50": "inconclusive: 10.5 µM"}
{"smiles": "CCOC(=O)CCC(=O)OCC", "AC50": "inconclusive: 25 µM"}
